From article doi:10.1101/2025.02.25.640081
No constants are given. Whether binding was seen depends on the method and setting. Binding seen in cells or lysates may run through a third protein. Some binding calls cover weakened binding; strength is not graded here.

Protein sequences, listed by entry. Tags and fused reporters are not part of them.
UniProt Q13838, whole entry: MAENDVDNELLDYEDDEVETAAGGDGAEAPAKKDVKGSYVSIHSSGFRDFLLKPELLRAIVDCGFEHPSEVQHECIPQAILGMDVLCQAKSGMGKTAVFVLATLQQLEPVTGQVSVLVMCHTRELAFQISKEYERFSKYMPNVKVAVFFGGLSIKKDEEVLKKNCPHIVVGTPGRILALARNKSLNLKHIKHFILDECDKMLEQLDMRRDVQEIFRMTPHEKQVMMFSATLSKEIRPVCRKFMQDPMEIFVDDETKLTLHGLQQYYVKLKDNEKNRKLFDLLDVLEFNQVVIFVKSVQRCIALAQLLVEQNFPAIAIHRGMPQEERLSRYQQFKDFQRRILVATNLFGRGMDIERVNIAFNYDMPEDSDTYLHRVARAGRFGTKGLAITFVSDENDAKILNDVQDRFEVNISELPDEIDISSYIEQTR

Biological target: T1, CHTOP (human (endogenous in K562)) (UniProt Q9Y3Y2)
T1 sequence: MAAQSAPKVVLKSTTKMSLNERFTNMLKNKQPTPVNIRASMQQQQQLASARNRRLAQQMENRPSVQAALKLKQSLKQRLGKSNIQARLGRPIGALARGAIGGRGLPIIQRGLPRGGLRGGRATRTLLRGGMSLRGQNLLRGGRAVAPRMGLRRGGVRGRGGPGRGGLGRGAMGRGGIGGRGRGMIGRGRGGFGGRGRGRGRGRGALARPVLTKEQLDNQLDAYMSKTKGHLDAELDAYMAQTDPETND
Experiment: cross-linking

binding: binds
Substance: DEAD-box RNA helicase DDX39B (from UniProt Q13838 1-428)
